± gives the standard deviation of the averaged measurements. The list shows a part of the results. These are raw signals, not scaled to a control.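 A single yeast strain with four plasmids, each encoding a fluorescent protein and an amino-acid or uracil biosynthesis gene, seeds the community. Stochastic plasmid loss yields mixed prototroph and auxotroph subpopulations. Fixed cells were counted via automated confocal fluorescence imaging; DMSO-treated wells were the vehicle reference.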
Each compound was assayed on Saccharomyces cerevisiae BY4741 SeMeCo community (assay: imaged cell count per well (cells); higher = more cells). Conditions: 10 µM; 24 h; SM minimal medium.
Protocol: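 Same SeMeCo high-content imaging drug screen: Selleck FDA-approved drugs at 10 µM, 24 h in SM medium, 384-well plates, 3 replicates.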

SMILES	imaged cell count per well
C[C@H]1COc2c(N3CCN(C)CC3)c(F)cc3c(=O)c(C(=O)O)cn1c23 [Levofloxacin]	27900 ± 4500
COC(=O)Nc1nc2cc(Sc3ccccc3)ccc2[nH]1 [Fenbendazole]	26000 ± 1300
C[C@]12CC[C@@H]3c4ccc(O)cc4CC[C@H]3[C@@H]1CC[C@@H]2OC(=O)CCC1CCCC1 [Estradiol Cypionate]	25100 ± 5800
C#C[C@]1(O)CC[C@H]2[C@@H]3CCC4=CC(=O)CC[C@@H]4[C@H]3CC[C@@]21CC [Levonorgestrel]	25500 ± 1900
C[C@]12CC[C@@H]3c4ccc(OC(=O)c5ccccc5)cc4CC[C@H]3[C@@H]1CC[C@@H]2O [Estradiol Benzoate]	24200 ± 7600
COC(=O)C1=C(C)NC(C)=C(C(=O)OC(C)(C)CN(C)CCC(c2ccccc2)c2ccccc2)C1c1cccc([N+](=O)[O-])c1 (stereo not drawn) [Lercanidipine]	23800 ± 4800
C=CC[C@@H]1/C=C(\C)C[C@H](C)C[C@H](OC)[C@H]2O[C@@](O)(C(=O)C(=O)N3CCCC[C@H]3C(=O)O[C@H](/C(C)=C/[C@@H]3CC[C@@H](O)[C@H](OC)C3)[C@H](C)[C@@H](O)CC1=O)[C@H](C)C[C@@H]2OC [Tacrolimus (FK506)]	23400 ± 4900
CCCCCCCCCCCCCCCCCCOP(=O)([O-])OC1CC[N+](C)(C)CC1 [Perifosine (KRX-0401)]	2830 ± 990
